Measured values taken from US20140079774A1.
No constants are given. Whether binding was seen depends on the method and setting. Some binding calls cover weakened binding; strength is not graded here.

By UniProt entry, the sequences of proteins in these tests, tags left out. Residues count along the entry.
UniProt P08581, residues 25-932: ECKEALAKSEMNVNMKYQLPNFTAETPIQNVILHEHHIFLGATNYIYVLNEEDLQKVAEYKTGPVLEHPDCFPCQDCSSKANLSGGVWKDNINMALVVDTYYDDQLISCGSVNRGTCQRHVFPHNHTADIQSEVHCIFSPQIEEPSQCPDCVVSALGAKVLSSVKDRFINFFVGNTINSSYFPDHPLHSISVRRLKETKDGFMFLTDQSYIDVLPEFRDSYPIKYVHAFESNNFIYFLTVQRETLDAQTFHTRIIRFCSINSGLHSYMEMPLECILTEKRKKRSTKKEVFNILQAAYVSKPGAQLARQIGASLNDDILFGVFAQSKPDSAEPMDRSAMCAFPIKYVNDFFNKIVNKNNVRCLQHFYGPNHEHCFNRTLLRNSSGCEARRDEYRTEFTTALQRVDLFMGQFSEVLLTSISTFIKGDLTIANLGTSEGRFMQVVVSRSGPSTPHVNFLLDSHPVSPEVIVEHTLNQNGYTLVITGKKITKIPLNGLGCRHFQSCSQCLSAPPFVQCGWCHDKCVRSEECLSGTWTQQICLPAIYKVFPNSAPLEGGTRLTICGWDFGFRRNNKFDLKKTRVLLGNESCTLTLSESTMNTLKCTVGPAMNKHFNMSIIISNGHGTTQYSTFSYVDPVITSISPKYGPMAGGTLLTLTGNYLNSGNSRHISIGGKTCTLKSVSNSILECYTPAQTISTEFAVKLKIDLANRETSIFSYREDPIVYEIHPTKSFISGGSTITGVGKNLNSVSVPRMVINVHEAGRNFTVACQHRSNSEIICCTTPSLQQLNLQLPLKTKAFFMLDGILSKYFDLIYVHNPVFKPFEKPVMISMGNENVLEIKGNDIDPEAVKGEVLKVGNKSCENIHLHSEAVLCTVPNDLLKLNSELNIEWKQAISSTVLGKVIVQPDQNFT

biological target: recombinant human Met (rhMet), fused to the Fc domain of human IgG (human) (UniProt P08581); assay: phage display selection on rhMet-Fc / phage ELISA

Binder | binding
ASVHFPP [ASVHFPP peptide (MC40 targeting peptide), phage-displayed] | binds
WPRLTNM [WPRLTNM peptide, phage-displayed] | binds
IPLKVHP [IPLKVHP peptide, phage-displayed] | binds
TATFWFQ [TATFWFQ peptide, phage-displayed] | binds
TSPVALL [TSPVALL peptide, phage-displayed] | binds

biological target: recombinant human Met (rhMet), fused to the Fc domain of human IgG (human) (UniProt P08581); assay: phage display selection

Binder | binding
ASVHFPP [ASVHFPP peptide (MC40 targeting peptide), phage-displayed] | binds
